# Assay results published in PubChem BioAssay AID2685 (National Center for Advancing Translational Sciences (NCATS), 2010).
# The list shows a part of the results. Further columns of the screen follow, without active or inactive calls. Compounds called inactive in the main read-out are mostly missing here. Words in brackets tell the shape of the fitted curve; partial curves, single points and poor fits give uncertain potencies.
# Test: qHTS Assay for Lipid Storage Modulators in Drosophila S3 Cells;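 as to cell number change: cells counted by Cell Tracker Red CMTPX staining in the red channel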
# Details: BODIPY lipid droplet fluorescence, 18-24 h; for cell number change: measured here: cell count max response, cells fed with added oleic acid
# Outline: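 Drosophila S3 cells got compounds at several concentrations plus oleic acid (400 uM solution). Laser-scanning cytometry with 488 nm excitation read lipid droplets at 500-530 nm and cells at 575-640 nm. Percent activity was relative to 20 uM Triacsin C.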
# [1] = measured here: lipid fluorescence (Fed channel) AC50, cells fed with added oleic acid
# [2] = measured here: cell number channel AC50, cells fed with added oleic acid
Structure (SMILES),AC50 [1],AC50 [2],cell number change
CCCCN1C(=O)C(=O)N(CC(=O)NC2CCCc3ccccc32)C1=O (stereo not given),"0.103 µM [rising, single point]",–,–
Cc1c(C(=O)Nc2ccncc2)sc2nc(-c3ccc(F)cc3)cn12,"1.64 µM [rising, partial curve]","1.84 µM [rising, partial curve]",–
Nc1nc(CN2CCN(c3ccccc3)CC2)nc(N2CCCc3ccccc32)n1,–,–,-0.128%
Cc1ccc(CNC(=O)c2cc(-c3ccccc3)nn2Cc2cc(C)no2)cc1,"10.3 µM [falling, partial curve]",–,-17.4%
O=C(O)c1ccccc1-c1nc2ccccc2n1-c1ccccc1,"25.9 µM [falling, partial curve]",–,-20.4%
COc1cc(C(=O)Nc2cc(-c3nc4cc(C)ccc4o3)ccc2C)cc(OC)c1OC,"2.59 µM [rising, partial curve]",–,11.5%
CN(C)C(=O)c1ccc(NC(=O)COC(=O)C2CCN(S(=O)(=O)c3ccc4c(c3)OCCO4)CC2)cc1,–,–,-2.81%
COc1ccc(C(=O)COC(=O)CCN2C(=O)C3C4CCC(C4)C3C2=O)cc1 (stereo not given),"16.4 µM [falling, partial curve]",–,-22.6%
O=[N+]([O-])c1ccc(SCCO)nc1SCCO,"2.91 µM [falling, full curve]","2.59 µM [falling, full curve]",-37.4%
CC1(C)CC(=O)C(c2c[nH]c3ccccc23)C(=O)C1,–,"32.6 µM [rising, single point]",31.3%
COc1ccc(/C=N/N2CCN(c3ccc(Cl)cc3)CC2)cc1O,"23.1 µM [rising, single point]",–,8.4%
CCCCNC(=O)CCC(=O)Nc1ccc2nc(N3CCN(C)CC3)cc(C)c2c1,"0.517 µM [falling, single point]","0.461 µM [falling, single point]",10.4%
CCN1CCN(S(=O)(=O)CC2(C)C3CCC2(C)C(=O)C3Br)CC1 (stereo not given),–,–,-11.2%
CC1C(=O)Nc2ccc(S(=O)(=O)NCc3ccc(Cl)cc3)cc2NC1=O (stereo not given),"0.058 µM [falling, full curve, poor fit]",–,7.78%
O=C(Nc1cccc(-c2cn3c(n2)SCC3)c1)c1ccc2ccccc2n1,"5.8 µM [rising, full curve]","29.1 µM [rising, single point]",41.5%
CC(=O)Nc1cc(NC(C)=O)cc(C(=O)OCC(=O)c2ccc3c(c2)NC(=O)CO3)c1,–,–,-6.83%
COc1cc2ccccc2cc1C(=O)Nc1ccc(C)cn1,–,–,23.3%
CCOC(=O)/C=c1\s/c(=C\c2c(OC)ccc3ccccc23)c(=O)n1CC(=O)NCC1CCCO1 (stereo not given),"5.8 µM [rising, single point]","3.26 µM [rising, single point]",–
CC1CCCC(NC(=O)COC(=O)/C=C/c2ccco2)C1C (stereo not given),"0.0651 µM [falling, full curve]",–,2.29%

# A run of entries from the list above:
Structure (SMILES),AC50 [1],AC50 [2],cell number change
COc1ccc(/C=N/N2CCN(c3ccc(Cl)cc3)CC2)cc1O,"23.1 µM [rising, single point]",–,8.4%
CCCCNC(=O)CCC(=O)Nc1ccc2nc(N3CCN(C)CC3)cc(C)c2c1,"0.517 µM [falling, single point]","0.461 µM [falling, single point]",10.4%

# Next part:

Structure (SMILES),AC50 [1],AC50 [2],cell number change
COc1cc2c(cc1OC)CN(C(=O)CSc1nc(N)c(C#N)cc1C#N)CC2,"1.16 µM [rising, partial curve]",–,10.5%
C=CCSc1nc(N)c(C(=O)Nc2ccccc2OC)cc1C(=O)Nc1ccccc1,"6.51 µM [rising, partial curve, poor fit]",–,–
CCCCC(=O)OCc1nc(N)nc(Nc2ccccc2C)n1,"29.1 µM [rising, single point]","11.6 µM [rising, partial curve]",35.5%
Cc1cccc(NC(=O)c2ccccc2SCc2ccc(F)cc2)n1,"18.4 µM [rising, partial curve, poor fit]",–,30%
O=S(=O)(Oc1ccccc1N1CCCCC1)c1ccccc1,"29.1 µM [falling, single point]","32.6 µM [falling, single point]",-47.3%
CCOC(=O)N/N=C/c1cn(Cc2ccc(Cl)cc2)c2ccccc12,"3.66 µM [rising, partial curve, poor fit]","0.00517 µM [falling, full curve, poor fit]",-55.9%
CCc1cc2c(SCC(=O)N3CCCC3=O)ncnc2s1,"0.146 µM [rising, full curve, poor fit]",–,-8.9%
CCCCCn1c(C(C)NC(=O)CCC)nc2ccccc21 (stereo not given),"0.58 µM [rising, single point]","0.82 µM [rising, partial curve]",–
Cc1ccc2cc3cc(C(=O)N(CC(=O)NC4CCCC4)c4cccc(C)c4C)sc3nc2c1,"3.26 µM [falling, partial curve]",–,-40.7%
Cc1cccc(NC(=S)NCc2cccn2C)c1,"13 µM [rising, partial curve]","11.6 µM [rising, partial curve]",61.5%
CCOc1ccc(-c2nc(CSc3nnc(N)s3)cs2)cc1OC,"0.411 µM [rising, partial curve, poor fit]",–,14.3%
Cc1c(NC(=O)CN2C(=O)NC(C)(c3ccc(Cl)cc3)C2=O)c(=O)n(-c2ccccc2)n1C (stereo not given),"3.66 µM [falling, full curve]","2.91 µM [falling, full curve, poor fit]",-22%
Cc1cc(NC(=O)CNC(=O)C2CCCCC2)no1,"6.51 µM [falling, single point]",–,-1.66%
Cc1cc(NC(=O)CCCn2nc([N+](=O)[O-])c(Cl)c2C)no1,–,–,24.4%
O=C(c1ccccc1SCc1ccccc1)N1CCCCCC1,–,"3.66 µM [rising, single point]",–
CCOc1ccc(OCCC(=O)OCC(=O)Nc2ccc3c(c2)OCCO3)cc1,"23.1 µM [falling, single point]","20.6 µM [falling, single point]",-42.9%
Cc1ccc(COc2ccc(/C=N/NC(=O)c3nnn(-c4nonc4N)c3COc3ccc(F)cc3)cc2)cc1,"0.13 µM [rising, full curve]",–,15.8%
C#CCOCCOCCOCCNc1nc(N2CCN(C(=O)CCCCCCCCCCNC(=O)[C@H]([C@@H](C)CC)n3cc(CCCCN=C(N)N)nn3)CC2)nc(N2CCN(C(=O)CCCCCCCCCCNC(=O)[C@H](CCCCN)n3cc(C[C@@H](C)CC)nn3)CC2)n1,"13 µM [falling, partial curve]","6.51 µM [falling, partial curve]",-86.6%
